Data published in patent US8815517B2, “Methods for identifying functionally related genes and drug targets” (Ribonomics, Inc., priority 1999, dated 2014).
At least one compound was matched to its structure with a doubt left.

Legend:
G11 cells [1] = test: Induction of differentiation of HuB (Hel-N2) stably transfected P19 (G11) cells; type: cell-based, murine; settings: 0.5 μM, harvested after about eight days
Procedure: The cells were then plated into two 100 mm gelatin-coated tissue culture plates. Cells were harvested after an additional four days. […] Neuronal differentiation was induced by treating 5×10^5 G11 or P19 cells placed on a 60 mm petri dish with 0.5 μM RA (Sigma-Aldrich, St. Louis, Mo., Catalog # R2625). Muscle differentiation was induced by treating 5×10^5p19 cells placed on a 60 mm petri dish with 5% DMSO (Sigma-Aldrich, St. Louis, Mo., Catalog # D2650). After two days, 25% of the cells that had formed into clumps were removed, placed in new petri dishes, and supplemented with fresh medium and RA or DMSO. Following an additional two days, cell aggregates were washed once with phosphate-buffered saline (PBS) and trypsinized. The cells were then plated into two 100 mm gelatin-coated tissue culture plates. Cells were harvested after an additional four days. […] Cell extracts and immunoprecipitations were performed as described in Example 1. Monoclonal anti-gene 10 (g10) antibodies were obtained from Duke University (Durham, N.C.) as previously described in Examples 1 and 2.

G11 cells [2] = test: Quantitative PCR of CACN, CELSR and MBNL RNA expression in G11 cells over the time course of differentiation; type: cell-based, murine; settings: time course of one to nine days
Procedure: The expression of these three genes was analyzed by Quantitative RT-PCR during a time course of one to nine days of treatment with either dimethyl-sulfoxide or retinoic acid. To verify a role in neuronal differentiation, a comprehensive transcriptional analysis by Quantitative PCR was undertaken looking at the patterns of RNA expression for the […], and MBNL genes in the G11 cells (constitutively expressing HuB) and in the parental P19 cells (FIGS. 12A, 12B, and 12C).

## CC1=C(/C=C/C(C)=C/C=C/C(C)=C/C(=O)O)C(C)(C)CCC1 [RA, retinoic acid]
G11 cells [1]
  neuronal differentiation (morphology and markers): grew neurites and displayed characteristic neuronal markers and morphology
G11 cells [2]
  expression patterns of the CACN, CELSR and MBNL genes: temporal induction
